We go through one compound from US20260055097A9, “NRF2 PROTEIN DEGRADERS” (Ganymede Oncology, Inc., priority 2022, published 2026).

Sequences of proteins named here, by UniProt entry; tags and fusion partners are left off.
UniProt Q16236, whole entry: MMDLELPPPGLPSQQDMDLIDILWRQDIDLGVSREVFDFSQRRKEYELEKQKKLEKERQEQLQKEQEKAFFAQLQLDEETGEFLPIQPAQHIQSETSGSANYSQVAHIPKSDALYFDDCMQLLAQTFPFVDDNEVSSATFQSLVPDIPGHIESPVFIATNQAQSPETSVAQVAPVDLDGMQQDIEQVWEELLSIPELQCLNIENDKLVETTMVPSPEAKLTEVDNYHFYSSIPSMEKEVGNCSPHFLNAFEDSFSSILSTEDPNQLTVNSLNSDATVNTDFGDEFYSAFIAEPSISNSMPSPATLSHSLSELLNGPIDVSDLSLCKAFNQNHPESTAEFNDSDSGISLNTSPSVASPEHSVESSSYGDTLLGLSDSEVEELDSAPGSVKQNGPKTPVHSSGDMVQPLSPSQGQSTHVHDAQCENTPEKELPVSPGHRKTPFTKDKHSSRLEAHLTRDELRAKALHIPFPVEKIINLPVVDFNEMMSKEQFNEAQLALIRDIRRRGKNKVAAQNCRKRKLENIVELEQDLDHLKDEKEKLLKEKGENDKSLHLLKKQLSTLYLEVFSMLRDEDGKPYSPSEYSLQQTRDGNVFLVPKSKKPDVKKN

In general, IC50 refers to the concentration at which inhibition is half-maximal. The term DC50 denotes the midpoint of the concentration-degradation curve.

One experiment has as its system A549. The experiment can be described thus: Cancer cell viability, A549 (CellTiter-Glo). The conditions noted are these: read-out: Cellular IC50 (μM) A549, A549 cells, 3 days.
For the next experiment, the target named is Nrf2 (Homo sapiens, UniProt Q16236). In words: Nrf2 degradation in A549 HiBiT-Nrf2 cells, Nano-Glo HiBiT lytic detection (HiBiT readout). On the technique in general: The HiBiT peptide binds its large partner to form an active luciferase.
The test system of a further experiment is LK-2. In words: Cancer cell viability, LK-2 (CellTiter-Glo). The note with it: read-out: Cellular IC50 (μM) LK-2, LK-2 cells, 3 days. For orientation: ATP-based viability assays read luminescence as a measure of living cells.

Like-named read-outs stand apart in the source and are kept apart here. Structures were worked out from names or drawings and are uncertain.

On to `Cc1ccccc1C(=O)N1CCc2cc(-c3nc(NC(=O)Cc4cccc(OCCN5CCN(c6ccc7c(c6)C(=O)N(C6CCC(=O)NC6=O)C7=O)CC5)c4)sc3C)ccc21` (stereo not shown), for which the IC50 with A549 and with LK-2 was over 30 µM in each case. In addition, the DC50 at Nrf2 (read-out: DC50 (nM) at 6 h, 6 h) was over 3000 nM; on Nrf2 (read-out: DC50 (nM) at 20 h, 20 h), over 3000 nM.
